Read-outs that look alike come from different tables or passages of the source. No constants are given. Whether binding was seen depends on the method and setting. For some assays here: Binding seen in cells or lysates may run through a third protein. Some results given as binding are weak or reduced against the parent protein; the word gives no strength. For some assays here: Sequences can lack the tags named with a protein. One block for each molecule: values may come before it.
Key:
[1] = biological target: human SPG11 (spatacsin), full length, N-terminal Twin-Strep-Flag tag (human) (UniProt Q96JI7); assay: cryo-EM structure
[2] = biological target: human SPG11 (spatacsin), full length, N-terminal Twin-Strep-Flag tag (human) (UniProt Q96JI7); assay: cross-linking
[3] = biological target: T1, mouse AP5ζ with N-terminal GST tag and C-terminal Twin-Strep tag (subcomplex purification) (mouse) (UniProt Q3U829); assay: SEC
T1 sequence: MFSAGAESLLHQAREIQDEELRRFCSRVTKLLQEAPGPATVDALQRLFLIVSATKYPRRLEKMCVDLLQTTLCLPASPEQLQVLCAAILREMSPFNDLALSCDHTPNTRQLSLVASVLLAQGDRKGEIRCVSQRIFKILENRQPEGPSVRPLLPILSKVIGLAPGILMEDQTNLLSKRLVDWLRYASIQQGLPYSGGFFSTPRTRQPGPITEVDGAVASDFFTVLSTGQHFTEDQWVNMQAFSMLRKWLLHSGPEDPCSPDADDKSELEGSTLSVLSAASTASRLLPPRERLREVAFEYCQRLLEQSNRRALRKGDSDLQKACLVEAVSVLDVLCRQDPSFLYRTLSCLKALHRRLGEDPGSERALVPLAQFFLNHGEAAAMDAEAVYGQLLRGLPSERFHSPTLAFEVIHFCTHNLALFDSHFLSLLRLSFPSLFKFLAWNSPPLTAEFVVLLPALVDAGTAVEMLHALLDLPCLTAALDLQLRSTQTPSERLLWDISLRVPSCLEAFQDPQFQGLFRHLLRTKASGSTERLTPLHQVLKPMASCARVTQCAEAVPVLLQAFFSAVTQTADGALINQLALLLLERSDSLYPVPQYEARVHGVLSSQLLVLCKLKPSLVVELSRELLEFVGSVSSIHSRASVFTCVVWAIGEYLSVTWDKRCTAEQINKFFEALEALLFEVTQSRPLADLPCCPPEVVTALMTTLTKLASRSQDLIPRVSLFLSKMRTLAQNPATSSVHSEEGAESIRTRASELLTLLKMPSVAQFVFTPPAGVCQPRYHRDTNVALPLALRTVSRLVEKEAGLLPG

Chains of the proteins cited; added tags and fusions are not shown.
UniProt Q96JI7, whole entry: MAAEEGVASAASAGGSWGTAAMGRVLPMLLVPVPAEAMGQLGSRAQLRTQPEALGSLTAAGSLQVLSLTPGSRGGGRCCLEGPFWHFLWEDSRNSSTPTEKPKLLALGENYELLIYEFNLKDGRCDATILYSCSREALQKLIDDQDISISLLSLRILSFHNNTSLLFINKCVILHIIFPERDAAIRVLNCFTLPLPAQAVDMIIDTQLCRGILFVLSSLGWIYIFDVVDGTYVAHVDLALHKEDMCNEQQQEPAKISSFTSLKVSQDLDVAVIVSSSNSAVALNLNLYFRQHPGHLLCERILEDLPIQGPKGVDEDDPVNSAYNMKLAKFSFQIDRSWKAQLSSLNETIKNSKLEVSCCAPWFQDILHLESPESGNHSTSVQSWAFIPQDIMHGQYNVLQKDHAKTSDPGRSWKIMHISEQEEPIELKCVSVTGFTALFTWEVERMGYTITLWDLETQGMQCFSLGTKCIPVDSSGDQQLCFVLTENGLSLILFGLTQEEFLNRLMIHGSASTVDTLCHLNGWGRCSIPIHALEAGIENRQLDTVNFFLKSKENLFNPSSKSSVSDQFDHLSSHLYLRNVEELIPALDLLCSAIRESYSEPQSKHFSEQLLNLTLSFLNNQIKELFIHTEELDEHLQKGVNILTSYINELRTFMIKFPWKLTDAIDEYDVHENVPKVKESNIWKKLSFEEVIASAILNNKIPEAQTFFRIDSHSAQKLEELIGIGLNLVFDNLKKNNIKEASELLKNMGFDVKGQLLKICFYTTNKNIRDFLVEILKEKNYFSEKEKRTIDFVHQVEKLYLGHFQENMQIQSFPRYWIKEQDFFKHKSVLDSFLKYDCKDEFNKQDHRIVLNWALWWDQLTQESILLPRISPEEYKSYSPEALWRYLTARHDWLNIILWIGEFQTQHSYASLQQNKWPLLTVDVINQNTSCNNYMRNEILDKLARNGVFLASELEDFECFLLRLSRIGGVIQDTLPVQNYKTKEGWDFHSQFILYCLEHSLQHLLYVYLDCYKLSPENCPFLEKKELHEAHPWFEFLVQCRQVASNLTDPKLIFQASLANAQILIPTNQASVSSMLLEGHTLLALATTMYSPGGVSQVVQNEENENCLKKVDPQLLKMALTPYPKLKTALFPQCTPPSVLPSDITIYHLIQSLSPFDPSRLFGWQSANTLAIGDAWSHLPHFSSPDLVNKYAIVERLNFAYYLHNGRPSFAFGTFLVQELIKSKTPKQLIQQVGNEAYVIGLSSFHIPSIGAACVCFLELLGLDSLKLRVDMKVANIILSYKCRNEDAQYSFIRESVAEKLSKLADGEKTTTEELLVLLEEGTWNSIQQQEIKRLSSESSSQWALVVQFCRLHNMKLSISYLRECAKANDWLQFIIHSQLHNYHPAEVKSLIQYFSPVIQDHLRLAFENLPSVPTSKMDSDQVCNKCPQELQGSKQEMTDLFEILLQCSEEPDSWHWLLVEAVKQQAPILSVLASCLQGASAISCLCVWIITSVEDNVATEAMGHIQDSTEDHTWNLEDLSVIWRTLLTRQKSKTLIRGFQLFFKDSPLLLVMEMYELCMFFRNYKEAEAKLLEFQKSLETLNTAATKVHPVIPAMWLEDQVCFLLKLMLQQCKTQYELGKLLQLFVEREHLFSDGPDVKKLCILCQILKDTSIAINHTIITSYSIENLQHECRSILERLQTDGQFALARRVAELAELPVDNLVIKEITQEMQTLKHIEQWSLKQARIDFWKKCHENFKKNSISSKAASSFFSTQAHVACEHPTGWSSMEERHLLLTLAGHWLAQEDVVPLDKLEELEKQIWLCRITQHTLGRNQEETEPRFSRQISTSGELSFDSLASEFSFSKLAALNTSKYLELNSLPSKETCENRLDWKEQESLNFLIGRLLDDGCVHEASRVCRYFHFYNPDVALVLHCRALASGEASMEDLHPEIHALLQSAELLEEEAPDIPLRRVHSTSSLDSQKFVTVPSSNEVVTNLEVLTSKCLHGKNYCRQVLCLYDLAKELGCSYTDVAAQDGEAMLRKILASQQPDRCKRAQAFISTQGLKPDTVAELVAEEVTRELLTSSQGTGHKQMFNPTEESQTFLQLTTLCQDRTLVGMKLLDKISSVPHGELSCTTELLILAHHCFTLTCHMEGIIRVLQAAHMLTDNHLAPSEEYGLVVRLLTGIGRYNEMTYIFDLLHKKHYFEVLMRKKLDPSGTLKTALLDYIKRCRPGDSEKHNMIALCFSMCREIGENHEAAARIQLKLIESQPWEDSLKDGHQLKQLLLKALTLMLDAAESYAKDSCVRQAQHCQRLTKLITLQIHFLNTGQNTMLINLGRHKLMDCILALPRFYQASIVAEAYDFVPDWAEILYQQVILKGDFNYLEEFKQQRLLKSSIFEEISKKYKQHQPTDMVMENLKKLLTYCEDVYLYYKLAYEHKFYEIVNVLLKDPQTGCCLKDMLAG
UniProt Q68DK2, whole entry: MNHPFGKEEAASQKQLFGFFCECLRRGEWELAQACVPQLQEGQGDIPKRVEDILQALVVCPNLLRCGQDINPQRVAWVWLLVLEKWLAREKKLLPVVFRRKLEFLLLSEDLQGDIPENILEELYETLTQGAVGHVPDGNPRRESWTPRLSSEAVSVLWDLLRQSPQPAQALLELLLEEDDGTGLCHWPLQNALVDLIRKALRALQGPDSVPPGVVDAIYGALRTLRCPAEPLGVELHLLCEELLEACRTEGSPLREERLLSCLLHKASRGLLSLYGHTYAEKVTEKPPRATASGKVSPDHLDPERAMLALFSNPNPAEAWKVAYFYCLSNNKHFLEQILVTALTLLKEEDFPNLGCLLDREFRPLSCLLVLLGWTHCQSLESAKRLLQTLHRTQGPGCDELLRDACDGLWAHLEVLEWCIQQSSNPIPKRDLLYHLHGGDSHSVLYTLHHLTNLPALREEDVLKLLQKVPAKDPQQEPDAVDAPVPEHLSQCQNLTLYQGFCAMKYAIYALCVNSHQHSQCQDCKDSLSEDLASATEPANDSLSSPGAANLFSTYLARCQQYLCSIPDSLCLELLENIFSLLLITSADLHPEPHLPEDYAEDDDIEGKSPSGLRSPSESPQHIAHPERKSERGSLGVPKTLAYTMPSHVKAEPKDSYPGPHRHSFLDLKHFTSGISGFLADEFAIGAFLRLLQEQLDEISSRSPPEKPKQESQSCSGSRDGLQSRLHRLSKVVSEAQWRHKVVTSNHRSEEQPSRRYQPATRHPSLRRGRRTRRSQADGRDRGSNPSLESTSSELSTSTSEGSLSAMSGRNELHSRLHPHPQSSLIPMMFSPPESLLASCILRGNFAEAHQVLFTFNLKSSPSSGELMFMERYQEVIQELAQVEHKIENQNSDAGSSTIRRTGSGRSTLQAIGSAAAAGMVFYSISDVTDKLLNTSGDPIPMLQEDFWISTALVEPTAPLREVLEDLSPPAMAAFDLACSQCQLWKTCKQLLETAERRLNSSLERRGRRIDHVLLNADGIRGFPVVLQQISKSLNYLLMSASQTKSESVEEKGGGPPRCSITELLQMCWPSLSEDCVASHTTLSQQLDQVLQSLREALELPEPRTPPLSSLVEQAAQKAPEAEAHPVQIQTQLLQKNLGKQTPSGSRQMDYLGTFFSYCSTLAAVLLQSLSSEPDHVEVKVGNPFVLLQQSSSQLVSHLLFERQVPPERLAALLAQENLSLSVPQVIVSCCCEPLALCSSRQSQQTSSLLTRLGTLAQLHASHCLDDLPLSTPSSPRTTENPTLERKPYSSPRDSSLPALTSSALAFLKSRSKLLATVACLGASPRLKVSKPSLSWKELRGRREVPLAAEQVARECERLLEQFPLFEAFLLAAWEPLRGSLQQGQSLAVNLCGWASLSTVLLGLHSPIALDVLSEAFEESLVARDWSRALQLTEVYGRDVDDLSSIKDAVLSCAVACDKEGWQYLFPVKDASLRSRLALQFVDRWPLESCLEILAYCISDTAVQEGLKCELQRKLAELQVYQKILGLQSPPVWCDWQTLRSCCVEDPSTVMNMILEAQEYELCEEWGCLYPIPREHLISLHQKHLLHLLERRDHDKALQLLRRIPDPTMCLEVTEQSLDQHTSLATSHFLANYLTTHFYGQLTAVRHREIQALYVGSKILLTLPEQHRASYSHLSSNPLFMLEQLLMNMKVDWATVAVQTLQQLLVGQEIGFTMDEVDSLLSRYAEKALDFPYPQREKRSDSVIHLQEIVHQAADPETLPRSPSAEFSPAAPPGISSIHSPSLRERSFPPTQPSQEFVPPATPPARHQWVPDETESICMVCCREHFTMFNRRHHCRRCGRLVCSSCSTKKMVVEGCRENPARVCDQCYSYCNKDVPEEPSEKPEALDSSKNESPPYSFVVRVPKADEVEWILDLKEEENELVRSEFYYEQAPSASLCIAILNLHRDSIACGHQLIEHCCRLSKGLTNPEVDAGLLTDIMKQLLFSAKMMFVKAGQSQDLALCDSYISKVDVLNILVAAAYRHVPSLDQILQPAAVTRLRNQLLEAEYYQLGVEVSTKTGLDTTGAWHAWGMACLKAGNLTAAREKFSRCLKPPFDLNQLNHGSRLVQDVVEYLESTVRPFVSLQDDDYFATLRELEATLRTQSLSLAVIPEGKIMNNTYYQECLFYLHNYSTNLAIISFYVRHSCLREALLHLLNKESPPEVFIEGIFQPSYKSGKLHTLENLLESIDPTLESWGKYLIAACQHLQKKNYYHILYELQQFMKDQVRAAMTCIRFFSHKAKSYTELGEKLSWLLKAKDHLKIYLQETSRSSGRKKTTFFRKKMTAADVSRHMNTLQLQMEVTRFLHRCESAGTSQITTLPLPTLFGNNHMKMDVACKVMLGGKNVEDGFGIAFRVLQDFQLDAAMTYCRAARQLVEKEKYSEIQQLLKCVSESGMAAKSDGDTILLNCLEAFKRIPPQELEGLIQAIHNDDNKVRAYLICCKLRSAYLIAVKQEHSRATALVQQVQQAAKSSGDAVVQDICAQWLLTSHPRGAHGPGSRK

[4] = biological target: T2, mouse AP5ζ (residues 1-807), from AP5ζ-GST after TEV digestion (mouse) (UniProt Q3U829); assay: cryo-EM structure
T2 sequence: T1 sequence

[5] = biological target: T2, mouse AP5ζ (residues 1-807), from AP5ζ-GST after TEV digestion (mouse); assay: cryo-EM structure; remark: listed apart in the source
[6] = biological target: human SPG11 (spatacsin), full length, N-terminal Twin-Strep-Flag tag (human) (UniProt Q96JI7); assay: cryo-EM structure; remark: listed apart in the source
[7] = biological target: human SPG11 (spatacsin), full length, N-terminal Twin-Strep-Flag tag (human) (UniProt Q96JI7); assay: cryo-EM structure; remark: listed apart in the source
[8] = biological target: human SPG11 (spatacsin), full length, N-terminal Twin-Strep-Flag tag (human) (UniProt Q96JI7); assay: cross-linking; remark: listed apart in the source
[9] = biological target: SPG11-SPG15 complex in Expi293F lysate (TSF-SPG11 with MBP-SPG15) (human) (UniProt Q96JI7+Q68DK2); assay: pull-down

B1: human AP5σ5 (residues 1-200) (protein, UniProt Q9NUS5 1-200)
chain: MVHAFLIHTLRAPNTEDTGLCRVLYSCVFGAEKSPDDPRPHGAERDRLLRKEQILAVARQVESMCRLQQQASGRPPMDLQPQSSDEQVPLHEAPRGAFRLAAENPFQEPRTVVWLGVLSLGFALVLDAHENLLLAEGTLRLLTRLLLDHLRLLAPSTSLLLRADRIEGILTRFLPHGQLLFLNDQFVQGLEKEFSAAWPR
binding [3]: binds
binding [4]: binds
binding [5]: binds

B3: GST-AP5β5 (full length)/µ5 subcomplex in Expi293F lysate (complex, UniProt Q2VPB7 1-878; Q8BJ63 1-490)
chain 1: MGPLSRDAWAQRLGAFRASPSAFMAGPEGEDLGRDLLSDLRSEKLSEQTKVSLLALSMEYPAQLWPDASAAEVAATSLLDTLVLLPPRPSALRRPLLLAATTALAAGGALGPTSGASCRLLPLLLGLAAGSDLGRGFVPASEQRPLQATACECLRELESCKPGLLGGSLGLLRGLLGQEGPVQPLSLLLALALRNTLVLQSRVGAGLGGLLTDKVSPTGGGPWDWTLVEEGDGRLQPQAPSWPAAEEGEGERSLTAREHSPEEARELRAAVIQLLDTSYLLTPVAQAQLLWLLGWALRGLQGQPPALFKPQLVRLLGTAQLTLLHAMLALKAAFGEALFTAQDEALLLRRLTLAAQHPALPPPTHLFYLHCVLSFPENWPLGPEGEEAAPLLLGPQLCRGLLPSLLHDPMALLARLHLLCLLCAEEEEEEKGQLPSPRHYLEELLAGLRQRAALDGGPRALATLCFQASYLVACCLAGQPTVLTPLIHGLAQLYQARPMLAPHFVDLLDQVDSELREPLKVVLRQVVVSRPGRDEALCWHLQMLAKVADGDAQSATLNFLQAAAAHCTNWDLQQGLLRVCRALLRAGVRGGLVDLLQVLARQLEDPDGRDHARLYYILLAHLAAPKLGVALGPSLAAPALASSLVAENQGFVAALMVQEAPALVRLSLGSHRVKGPLPVLKLQPEALEPIYSLELRFRVEGQLYAPLEAVHVPCLCPGRPARPLLLPLQPRCPAPARLDVHALYTTSTGLTCHAHLPPLFVNFADLFLPFPQPPEGAGLGFFEELWDSCLPEGAESRVWCPLGPQGLEGLVSRHLEPFVVVAQPPTSYCVAIHLPPDSKLLLRLEAALADGVPVALRTDDWAVLPLAGDYLRGLAAAV
chain 2: MALRAVWLIRHEPGTPLGGTVRFSRRYPTVEKRAKAFNGMTYVPVPEDGPFLRALLFQLRLLDDDKDFMERRDGCSRINKTSIYGLSVGGEELWPVIAFLRDSMIYASVPLVEQALSPRPPLISISGVSQGLELLLGIQDFLYSSQKNDTDLHTKLSQLPDLLLQACPLGTLLDANLQNSLNSINSVSVTQPQKQPAWKVGAYKGKAQISISITETVKCMQYGKQDIADTWQVAGTVACKCDLEGVMPAVTISLSLPTNGSPLQDIIVHPCVTSLDSAILTSSSIDTMDDSAFSGPYKFPFTPPLESFNLCHYTSQVPVPPILGSYHMKEEGVQLKVTVNFKLHESVRNNFEVCEAHIPFYNRGPITHLEYKASFGQLEVFREKSLLVWIIGQKFPKSMEISLSGTLTFGVKGHNKQPFDHICIGNTAYIKLNFRIADYTLTGCYADQHSVQVFASGKPKISAYRKLISSDYYIWNSKAPAPVTYASLLP
binding [9]: binds weakly

B5: human His6-AP5β5 trunk domain (residues 1-632) (domain or fragment, UniProt Q2VPB7 1-632)
chain: MGPLSRDAWAQRLGAFRASPSAFMAGPEGEDLGRDLLSDLRSEKLSEQTKVSLLALSMEYPAQLWPDASAAEVAATSLLDTLVLLPPRPSALRRPLLLAATTALAAGGALGPTSGASCRLLPLLLGLAAGSDLGRGFVPASEQRPLQATACECLRELESCKPGLLGGSLGLLRGLLGQEGPVQPLSLLLALALRNTLVLQSRVGAGLGGLLTDKVSPTGGGPWDWTLVEEGDGRLQPQAPSWPAAEEGEGERSLTAREHSPEEARELRAAVIQLLDTSYLLTPVAQAQLLWLLGWALRGLQGQPPALFKPQLVRLLGTAQLTLLHAMLALKAAFGEALFTAQDEALLLRRLTLAAQHPALPPPTHLFYLHCVLSFPENWPLGPEGEEAAPLLLGPQLCRGLLPSLLHDPMALLARLHLLCLLCAEEEEEEKGQLPSPRHYLEELLAGLRQRAALDGGPRALATLCFQASYLVACCLAGQPTVLTPLIHGLAQLYQARPMLAPHFVDLLDQVDSELREPLKVVLRQVVVSRPGRDEALCWHLQMLAKVADGDAQSATLNFLQAAAAHCTNWDLQQGLLRVCRALLRAGVRGGLVDLLQVLARQLEDPDGRDHARLYYILLAHLAAPKLGVALG
binding [7]: binds

Other lines, results leading:

binding [1]: binds
Molecule: human SPG15 (spastizin), full length, from GST-SPG15 after TEV digestion (from UniProt Q68DK2 1-2539)

binding [2]: binds
Molecule: human SPG15 (spastizin), full length, from MBP-SPG15 after TEV digestion (from UniProt Q68DK2 1-2539)

binding [6]: binds
binding [7]: binds
binding [8]: binds
B2: mouse AP5ζ (residues 1-807), from AP5ζ-GST after TEV digestion (protein, UniProt Q3U829 1-807)
chain: T1 sequence

binding [6]: binds
B4: human His6-AP5β5, full length (residues 1-878) (protein, UniProt Q2VPB7 1-878)
chain: B3 chain 1

— article doi:10.1101/2024.06.14.598999 (bioRxiv, 2024)
